The list shows a part of the results. Construct or isoform of the protein are uncertain.

This experiment concerns the target T1, ETS1 (UniProt P14921).
T1 sequence: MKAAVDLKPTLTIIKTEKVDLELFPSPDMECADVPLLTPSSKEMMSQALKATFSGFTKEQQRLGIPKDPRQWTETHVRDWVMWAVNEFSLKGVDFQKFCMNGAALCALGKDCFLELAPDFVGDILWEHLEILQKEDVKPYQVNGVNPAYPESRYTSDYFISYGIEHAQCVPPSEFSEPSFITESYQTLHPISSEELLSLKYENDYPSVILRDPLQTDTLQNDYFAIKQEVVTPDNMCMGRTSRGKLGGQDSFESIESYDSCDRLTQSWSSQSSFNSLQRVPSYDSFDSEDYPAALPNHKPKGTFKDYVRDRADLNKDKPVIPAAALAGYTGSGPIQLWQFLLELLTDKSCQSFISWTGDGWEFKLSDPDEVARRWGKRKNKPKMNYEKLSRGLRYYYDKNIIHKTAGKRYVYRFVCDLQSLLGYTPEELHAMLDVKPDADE
The experiment can be described thus: DAPPL (digital affinity profiling via proximity ligation, sequencing). The conditions noted are these: 10 mM Tris-HCl pH 7.5, 50 mM NaCl, 1 mM DTT, 4% glycerol, room temperature, 30 min; GST-TFs on glutathione beads, 16-mer random dsDNA library, 0.1% …; high values mean tight binding; double strand, one strand shown; scale: fold enrichment (6-mer frequency, TF over GST control).
TCTACT: the binding signal was 1.4. The figure for TCTTTA is 1.26; for GTAAAC it is 1.26.

Regarding CTTCTA, the binding signal was found to be 1.5. As for CATTCC, the binding signal turned out to be 1.29.

In the case of TTATAG, the binding signal was 1.24. Turning to GATCCT, the binding signal worked out at 1.32. With CCCTCG, the binding signal was 1.33. With AACTTC the figure was 2.52; with GTTACG, 1.05; with CGGCTT, 1.24. With ATGTCC the figure was 1.54. With ACATAC the figure was 1.22; with ATAAAT, 1.23; with CTGACT, 1.41. Sequence ATCACT yielded a binding signal of 1.31. Sequence TTGTCC displayed a binding signal of 1.46. With CTTCAG the figure was 1.2.

Consider CTCCCG, for which the binding signal came out at 1.5. With ATTGCG the figure was 1.19; with ACTGGC, 1.2; with AATGCC, 1.15.

Consider ACCTAA, for which the binding signal came to 1.15. Consider ATGTTC, for which the binding signal is 1.28. The figure for TAGCCC is 1.19; for TGTAAT it is 1.26; for ATACCG it is 1.09. As to GATTAC, the binding signal is 1.11. Turning to GGCTTC, the binding signal stood at 1.7. With AACATG the figure was 1.19.

TATCAT showed a binding signal of 1.21. The figure for CATATA is 1.1; for TATACT it is 1.32.

AACAAA had a binding signal of 1.18. On to ACATAT, for which the binding signal came out at 1.32. Take CTTGTG: the binding signal was determined as 1.44. The sequence GCTTCA yielded a binding signal of 1.28. The figure for TTGTGG is 1.38; for TACTCG it is 1.14.

The record behind these values is PMC7862700.
